Experimental data reported in paper PMC4060991, “The Human Orphan Nuclear Receptor Tailless (TLX, NR2E1) Is Druggable” (PLoS ONE, 2014).
No constants are given. Whether binding was seen depends on the method and setting. Some entries that bind do so weakly or less than the wild type.

Sequences of proteins named here, by UniProt entry; tags and fusion partners are left off. Residues count along the entry.
UniProt Q9Y466, residues 187-385: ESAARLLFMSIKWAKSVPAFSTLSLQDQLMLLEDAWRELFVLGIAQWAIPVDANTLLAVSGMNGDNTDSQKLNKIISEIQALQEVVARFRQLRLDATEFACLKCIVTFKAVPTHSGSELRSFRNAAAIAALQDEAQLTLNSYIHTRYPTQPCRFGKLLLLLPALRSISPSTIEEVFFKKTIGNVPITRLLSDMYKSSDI

Molecular target: human TLX ligand binding domain (TLX LBD, a.a. 187-385) (human) (UniProt Q9Y466)
Test: AUC; analytical ultracentrifugation in the presence of the three hit compounds (ccrp1, ccrp2, ccrp3) at 100 µM; data not shown; dimer to monomers; both purified

binding: binds
Substance: human TLX ligand binding domain (TLX LBD, a.a. 187-385) (from UniProt Q9Y466 187-385) (domain or fragment)
